# Patent publication US11850286B2, “Sulfamide linker, conjugates thereof, and methods of preparation” (priority 2014, dated 2023)
# Assays:
# [1] = test system: trastuzumab-N3 (compound 13b); assay: Conjugation of linker-conjugates to trastuzumab-N3, conversion by MS; conditions: trastuzumab-N3 (13b), rt, Tris buffer pH 7.5
# [2] = test system: trastuzumab-F2-GalNAz (compound 13c); assay: Conjugation of linker-conjugates to trastuzumab-F2-GalNAz, conversion by MS; conditions: trastuzumab-F2-GalNAz (13c) per FIG. 13b/14b
# [3] = test system: trastuzumab(N300C); assay: Competition conjugation of 17 vs 18 to trastuzumab(N300C); conditions: 6 eq. each of 17 and 18, 1 hour at room temperature, MS-analysis
Molecule,Conversion (%) ([1]; 30′),Conversion (%) ([1]; 60′),Conversion (%) ([1]; 90′),Conversion (%) ([1]; 120′),Conversion (%) ([1]; 960′),Conversion (%) ([2]; 30′),Conversion (%) ([2]; 60′),Conversion (%) ([2]; 120′),Conversion (%) ([2]; 240′),Conversion (%) ([2]; 3600′),Conversion (%) ([1]; 240′),Fc-fragment conjugated to maleimide [3]
"O=C(CCOCCOCCOCCOCCNC(=O)OCC1C2CCC#CCCC21)NCc1ccc2ccc3cccc4ccc1c2c34 (centres unmarked) [Compound 24, BCN-dPEG4-Pyrene]",0,10,20,30,80,,,,,,,
COc1cc2cc(c1Cl)N(C)C(=O)C[C@H](OC(=O)[C@H](C)N(C)C(=O)CCCCCNC(=O)CCOCCOCCOCCOCCOCCOCCOCCOCCOCCOCCOCCOCCNC(=O)OCC1C3CCC#CCCC31)[C@]1(C)O[C@H]1[C@H](C)[C@@H]1C[C@@](O)(NC(=O)O1)[C@H](OC)/C=C/C=C(\C)C2 (some centres unmarked) [Compound 31],25,45,,60,95,5,10,15,50,50,,
"O=C(CCCCCCNC(=O)OCC1C2CCC#CCCC21)NCc1ccccc1 (centres unmarked) [Compound 19, BCN-Heptanoic Acid Benzylamide]",0,0,,,,,,,,,10,
"O=C(NCc1ccc2ccc3cccc4ccc1c2c34)OCCOCCNS(=O)(=O)NC(=O)OCC1C2CCC#CCCC21 (centres unmarked) [Compound 26, BCN-sulfamide-pyrene]",70,80,85,95,100,,,,,,,
"O=C(NS(=O)(=O)NCc1ccc2ccc3cccc4ccc1c2c34)OCCCCCN1C(=O)C=CC1=O [Compound 18, Maleimide-Pyrene Derivative]",,,,,,,,,,,,Approximately 45%
"O=C(CCOCCOCCOCCOCCOCCOCCOCCOCCNC(=O)OCC1C2CCC#CCCC21)NCc1ccc2ccc3cccc4ccc1c2c34 (centres unmarked) [Compound 25, BCN-PEG8-pyrene]",20,20,30,60,80,,,,,,,
COc1cc2cc(c1Cl)N(C)C(=O)C[C@H](OC(=O)[C@H](C)N(C)C(=O)CCCCCNC(=O)CCOCCOCCOCCOCCNC(=O)OCC1C3CCC#CCCC31)[C@]1(C)O[C@H]1[C@H](C)[C@@H]1C[C@@](O)(NC(=O)O1)[C@H](OC)/C=C/C=C(\C)C2 (some centres unmarked) [Compound 30],75,>90,,>95,>95,25,40,65,95,95,,
"O=C(CCOCCOCCOCCOCCOCCOCCOCCOCCNC(=O)c1ccc2ccc3cccc4ccc1c2c34)NCCC(=O)N1Cc2ccccc2C#Cc2ccccc21 [Compound 28, DIBAC-PEG8-pyrene]",30,40,60,65,65,,,,,,,
DIBAC-sulfamide-pyrene [Compound 29],60,70,80,85,90,,,,,,,
CN(C(=O)OCCCCCNC(=O)OCC1C2CCC#CCCC21)S(=O)(=O)NCc1ccccc1 (centres unmarked) [Compound 22],0,5,,10,,,,,,,30,
O=C(CCCCCCNC(=O)OCC1C2CCC#CCCC21)NS(=O)(=O)NCc1ccccc1 (centres unmarked) [Compound 20],80,90,,95,,,,,,,>95,
"O=C(CCOCCOCCOCCOCCNC(=O)c1ccc2ccc3cccc4ccc1c2c34)NCCC(=O)N1Cc2ccccc2C#Cc2ccccc21 [Compound 27, DIBAC-PEG4-pyrene]",20,25,30,30,30,,,,,,,
COc1cc2cc(c1Cl)N(C)C(=O)C[C@H](OC(=O)[C@H](C)N(C)C(=O)CCCCCNC(=O)CCOCCOCCOCCOCCOCCOCCOCCOCCOCCOCCOCCOCCOCCOCCOCCOCCOCCOCCOCCOCCOCCOCCOCCOCCNC(=O)OCC1C3CCC#CCCC31)[C@]1(C)O[C@H]1[C@H](C)[C@@H]1C[C@@](O)(NC(=O)O1)[C@H](OC)/C=C/C=C(\C)C2 (some centres unmarked) [Compound 32],20,35,,70,85,<5,5,10,80,80,,
O=C(NCCCCCOC(=O)NS(=O)(=O)NCc1ccccc1)OCC1C2CCC#CCCC21 (centres unmarked) [Compound 21],,60,,,,,,,,,90,
